PubChem BioAssay AID1508597, Cure First | 2020

- Assay: 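Knock-downs altering ovarian cancer cell survival with or without PARP inhibitor rucaparib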 (primary screen)
- System: human ovarian carcinoma lines grown from tumours: OCI-P5x (papillary serous) and OCI-C5x (clear cell)
- Reagents: siRNA pool against human genes, 1.25 pmol siRNA per well
- Duration: 72 h or 96 h, depending on the cell culture
- Conditions: rucaparib 20 µM (about IC30) or vehicle, present until read-out
- Rucaparib or vehicle: Vehicle
- Cell line: OCI-P5x (serous)
- Read-out: 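ATP luminescence measured at 72 or 96 h according to the culture, then normalised and expressed as percent viability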
- Reading the numbers: viability, normalised: higher = more viable cells remaining
- Rule for the call: 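a well counts as a hit if its normalised viability is under 80 percent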
- Calls: active = viability under 80%; inactive = viability 80% or more
Shown is an unselected part of the about 2,100 reagents, in one setting of the screen. 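Calls flag viability under 80% in either arm, not effects specific to rucaparib; the reference for percent is not stated.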 Not stated in the record: the 100% reference.

BAZ2A, technical replicate 1
- viability, normalised (%): 44.7
- Outcome: active

BAZ2A, technical replicate 2
- viability, normalised (%): 50.8
- Outcome: active

BAZ2A, technical replicate 3
- viability, normalised (%): 47.1
- Outcome: active

PDGFRB, technical replicate 1
- viability, normalised (%): 77.5
- Outcome: active

PDGFRB, technical replicate 2
- viability, normalised (%): 77.1
- Outcome: active

PDGFRB, technical replicate 3
- viability, normalised (%): 80.9
- Outcome: inactive

SLC17A1, technical replicate 1
- viability, normalised (%): 74.9
- Outcome: active

SLC17A1, technical replicate 2
- viability, normalised (%): 70.8
- Outcome: active

SLC17A1, technical replicate 3
- viability, normalised (%): 103
- Outcome: inactive

PARP12, technical replicate 1
- viability, normalised (%): 50.7
- Outcome: active

PARP12, technical replicate 2
- viability, normalised (%): 74.6
- Outcome: active

PARP12, technical replicate 3
- viability, normalised (%): 80.2
- Outcome: inactive

2 entries already listed, arranged by “viability, normalised (%)”, low to high:
BAZ2A, technical replicate 1
- viability, normalised (%): 44.7
- Outcome: active

BAZ2A, technical replicate 2
- viability, normalised (%): 50.8
- Outcome: active
